{"source": "PubChem BioAssay AID504793 (Drosophila RNAi Screening Center, 2011)", "purpose": "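Knock-downs allowing continued mitosis even though DNA is damaged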 (primary screen)", "cell system": "Drosophila S2R+ cells", "reagent": "long dsRNA against Drosophila genes, about 0.25 µg dsRNA per well", "timing": "4 days of dsRNA, then 4 hours of drug before read-out", "treatment": "doxorubicin 0.5 µM for 4 hours to cause double-strand breaks, in cells also given a low, harmless dose of dsRNA against nbs to sensitise the assay", "measurement": "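Per-well count of mitotic cells stained for phospho-histone H3 after doxorubicin exposure, used as mitotic index; counts are raw and not normalised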", "scale": "mitotic cells: higher = more cells in mitosis, weaker G2 arrest", "hit rule": "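Genes are called active only when high mitotic counts were reproduced with independent dsRNAs and mitosis was checked for delay without damage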", "calls": "active = confirmed in follow-up tests; inactive = not confirmed", "note": "In all, the deposit lists about 23,000 reagents; this is a random part of those that have a named target and a result. Over the whole deposit, 62 (0.27%) were called active. 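Calls come from follow-up tests whose scores are not deposited, so confirmed genes may have low counts here; counts are not normalised per plate.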 Raw values are not corrected between plates. Unmarked entries are inactive. A plus sign joins genes that one reagent is predicted to hit."}
{"target": "snf", "dsRNA": "DRSC18835", "mitotic cells, replicate 1": 6}
{"target": "snf", "dsRNA": "DRSC27854", "mitotic cells, replicate 1": 5}
{"target": "CG16903", "dsRNA": "DRSC18561", "mitotic cells, replicate 1": 6}
{"target": "CG15515", "dsRNA": "DRSC15054", "mitotic cells, replicate 1": 8}
{"target": "CG4021", "dsRNA": "DRSC04439", "mitotic cells, replicate 1": 8}
{"target": "CG4021", "dsRNA": "DRSC25492", "mitotic cells, replicate 1": 9}
{"target": "Mfap1", "dsRNA": "DRSC08154", "mitotic cells, replicate 1": 2}
{"target": "Mfap1", "dsRNA": "DRSC29205", "mitotic cells, replicate 1": 3}
{"target": "TotF", "dsRNA": "DRSC02305", "mitotic cells, replicate 1": 8}
{"target": "Hat1", "dsRNA": "DRSC12298", "mitotic cells, replicate 1": 5}
{"target": "Hat1", "dsRNA": "DRSC29235", "mitotic cells, replicate 1": 6}
{"target": "Ada2a", "dsRNA": "DRSC16206", "mitotic cells, replicate 1": 14}
{"target": "Ada2a", "dsRNA": "DRSC21598", "mitotic cells, replicate 1": "35 (active)"}
{"target": "CG18135", "dsRNA": "DRSC10295", "mitotic cells, replicate 1": 5}
{"target": "Prx6a", "dsRNA": "DRSC00565", "mitotic cells, replicate 1": 5}
{"target": "CG33124", "dsRNA": "DRSC00298", "mitotic cells, replicate 1": 3}
{"target": "CG5577", "dsRNA": "DRSC10519", "mitotic cells, replicate 1": 3}
{"target": "His2B:CG33870 + His2B:CG33868 + His2B:CG33882 + 21 more", "dsRNA": "DRSC03757", "mitotic cells, replicate 1": 11}
{"target": "CG12128 + CG1407", "dsRNA": "DRSC06446", "mitotic cells, replicate 1": 2}
{"target": "CG9988", "dsRNA": "DRSC16587", "mitotic cells, replicate 1": 14}
{"target": "CG32983", "dsRNA": "DRSC22367", "mitotic cells, replicate 1": 13}
{"target": "PIG-B", "dsRNA": "DRSC08216", "mitotic cells, replicate 1": 14}
{"target": "PIG-B", "dsRNA": "DRSC22598", "mitotic cells, replicate 1": 6}

Hits, of those listed so far:
{"target": "Ada2a", "dsRNA": "DRSC21598", "mitotic cells, replicate 1": "35 (active)"}
